These are yes or no findings as the source states them, for the method shown. Some results given as binding are weak or reduced against the parent protein; the word gives no strength.
Assays:
[1] = target: tau aggregates in HEK293 tau biosensor cells (4R repeat domain of tau (K18) with the P301S mutation fused to CFP or YFP, seeded with clarified tau mouse brain homogenate) (UniProt P10636); assay: immunofluorescence in HEK293 tau biosensor cells
[2] = target: tau aggregates in HEK293 tau biosensor cells (4R repeat domain of tau (K18) with the P301S mutation fused to CFP or YFP, seeded with clarified tau mouse brain homogenate) (UniProt P10636); assay: immunofluorescence image
[3] = target: tau aggregates in HEK293 tau biosensor cells (4R repeat domain of tau (K18) with the P301S mutation fused to CFP or YFP, seeded with clarified tau mouse brain homogenate) (UniProt P10636); assay: immunofluorescence

The chains behind the UniProt entries cited, without tags or fusion partners. Where a name states a change or a piece, a line headed by the entry shows the natural chain unless it says otherwise.
UniProt Q9H307: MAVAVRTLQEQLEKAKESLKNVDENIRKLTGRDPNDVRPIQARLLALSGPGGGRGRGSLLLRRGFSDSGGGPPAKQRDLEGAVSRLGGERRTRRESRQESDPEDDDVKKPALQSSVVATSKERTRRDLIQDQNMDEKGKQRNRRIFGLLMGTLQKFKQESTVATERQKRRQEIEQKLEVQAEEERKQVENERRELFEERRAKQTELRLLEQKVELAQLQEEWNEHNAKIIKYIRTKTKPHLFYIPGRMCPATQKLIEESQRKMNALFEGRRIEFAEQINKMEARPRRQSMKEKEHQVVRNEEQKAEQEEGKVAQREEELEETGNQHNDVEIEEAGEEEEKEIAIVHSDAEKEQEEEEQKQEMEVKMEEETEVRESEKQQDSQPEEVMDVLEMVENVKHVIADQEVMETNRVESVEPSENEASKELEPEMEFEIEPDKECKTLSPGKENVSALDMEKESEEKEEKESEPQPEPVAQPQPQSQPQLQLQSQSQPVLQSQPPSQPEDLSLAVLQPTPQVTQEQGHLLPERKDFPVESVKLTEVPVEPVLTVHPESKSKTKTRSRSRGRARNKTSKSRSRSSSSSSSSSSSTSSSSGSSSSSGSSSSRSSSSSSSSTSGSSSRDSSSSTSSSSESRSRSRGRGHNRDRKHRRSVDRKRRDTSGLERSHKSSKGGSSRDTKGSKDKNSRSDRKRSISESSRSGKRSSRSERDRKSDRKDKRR
UniProt O15047: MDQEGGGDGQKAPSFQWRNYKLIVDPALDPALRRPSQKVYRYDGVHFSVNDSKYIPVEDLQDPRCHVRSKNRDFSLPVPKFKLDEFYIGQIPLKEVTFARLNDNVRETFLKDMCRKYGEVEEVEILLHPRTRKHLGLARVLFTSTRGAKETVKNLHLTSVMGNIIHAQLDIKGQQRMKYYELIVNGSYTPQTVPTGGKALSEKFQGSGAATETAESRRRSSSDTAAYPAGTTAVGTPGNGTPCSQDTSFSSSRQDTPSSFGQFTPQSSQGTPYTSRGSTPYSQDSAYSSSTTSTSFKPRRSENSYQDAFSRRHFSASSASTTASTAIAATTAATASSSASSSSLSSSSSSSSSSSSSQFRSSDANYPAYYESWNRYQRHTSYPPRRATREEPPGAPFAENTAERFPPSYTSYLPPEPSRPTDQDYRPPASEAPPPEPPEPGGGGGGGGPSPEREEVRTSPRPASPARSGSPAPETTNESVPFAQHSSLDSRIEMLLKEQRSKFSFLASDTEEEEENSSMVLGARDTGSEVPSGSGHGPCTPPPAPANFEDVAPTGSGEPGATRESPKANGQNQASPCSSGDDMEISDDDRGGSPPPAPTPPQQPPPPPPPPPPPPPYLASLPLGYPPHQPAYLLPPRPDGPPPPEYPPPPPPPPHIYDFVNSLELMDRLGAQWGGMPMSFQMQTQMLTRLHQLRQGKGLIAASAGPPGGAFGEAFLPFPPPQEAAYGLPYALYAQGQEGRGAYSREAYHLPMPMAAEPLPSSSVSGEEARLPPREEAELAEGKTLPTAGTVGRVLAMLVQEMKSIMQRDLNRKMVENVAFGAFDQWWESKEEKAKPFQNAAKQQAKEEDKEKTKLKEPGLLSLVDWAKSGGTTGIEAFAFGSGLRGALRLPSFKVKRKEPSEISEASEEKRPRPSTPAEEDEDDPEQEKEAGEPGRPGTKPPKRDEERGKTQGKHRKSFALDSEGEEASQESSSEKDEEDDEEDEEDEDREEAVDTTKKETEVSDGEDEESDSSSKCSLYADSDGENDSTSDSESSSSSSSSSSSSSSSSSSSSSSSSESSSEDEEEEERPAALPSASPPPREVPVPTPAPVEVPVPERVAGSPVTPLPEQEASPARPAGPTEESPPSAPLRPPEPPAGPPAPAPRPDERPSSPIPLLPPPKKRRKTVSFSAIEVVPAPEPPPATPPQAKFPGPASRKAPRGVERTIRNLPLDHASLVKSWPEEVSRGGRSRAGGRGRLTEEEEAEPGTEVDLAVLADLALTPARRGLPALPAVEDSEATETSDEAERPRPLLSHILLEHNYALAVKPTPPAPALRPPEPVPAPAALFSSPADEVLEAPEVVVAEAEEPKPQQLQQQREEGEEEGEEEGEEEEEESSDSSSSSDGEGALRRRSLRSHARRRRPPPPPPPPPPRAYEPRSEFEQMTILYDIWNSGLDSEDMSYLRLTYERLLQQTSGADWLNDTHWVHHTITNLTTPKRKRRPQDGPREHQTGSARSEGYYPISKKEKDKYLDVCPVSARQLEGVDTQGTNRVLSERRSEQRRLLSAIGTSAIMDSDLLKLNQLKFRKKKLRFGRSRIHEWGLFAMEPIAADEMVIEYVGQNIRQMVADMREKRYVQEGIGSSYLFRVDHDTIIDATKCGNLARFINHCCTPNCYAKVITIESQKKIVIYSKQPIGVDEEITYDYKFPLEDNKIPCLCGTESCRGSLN

Measured: binding

PNN (Pinin), endogenous in HEK293 tau biosensor cells (from UniProt Q9H307 2-717)
binds: all assays above

SETD1A, endogenous in HEK293 tau biosensor cells (from UniProt O15047 1-1707)
binds: all assays above

Source: US20250215059A1
